{
  "source": "PubChem BioAssay AID504444",
  "about": "(National Center for Advancing Translational Sciences (NCATS), 2011)",
  "note": "The campaign covered roughly 360,000 compounds. About 7,500 (2.1%) were called active. The shares of active, inactive and inconclusive entries below differ from those in the screen. Calls follow the shape of the dose curve; as a rule, active = well fitted inhibition curve with a large enough effect; inconclusive = small, poorly fitted or top-dose-only effect, or effect the other way; inactive = flat fitted curve, though single readings scatter. Potencies beside an inconclusive call are fits to weak or partial responses and may not hold up. Potency is read from the fitted curve at half-maximal effect.",
  "data": [
    {"test": "Nrf2 qHTS screen for inhibitors; also: nearly all actives have a fitted effect of over 60% in size", "settings": "A549 ARE-Fluc reporter, luciferase luminescence, 18-24 h; series mostly up to 46 µM", "method_in_brief": "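In this cell-based qHTS, ARE-driven firefly luciferase in A549 cells reports Nrf2 activity; the luminescent signal after BugLite lysis is the measured value, with a prior CellTiter-Fluor read for cell health.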", "values": [
      {"smiles": "CCCn1c(SCC(=O)N2CCN(C(=O)c3ccco3)CC2)nc2ccccc2c1=O", "Potency": "inconclusive: 16.4 µM [falling, single point]"},
      {"smiles": "CCOc1ccc(NS(=O)(=O)c2ccc3c(c2)CCN3C(=O)C2CCC2)cc1", "Potency": "inconclusive: 20.6 µM [falling, partial curve, poor fit]"},
      {"smiles": "Cc1ccc(-n2ncc(C(=O)NCCN3CCN(C)CC3)c2C2CCN(C(=O)OC(C)(C)C)CC2)cc1C", "Potency": "inconclusive: 20.6 µM [activator, partial curve, poor fit]"},
      {"smiles": "CC1CCC(NC(=O)c2ccc(CSc3nc4ccncc4n3Cc3ccc(F)cc3)cc2)CC1", "note": "(stereo not drawn)", "Potency": "inconclusive: 18.4 µM [falling, single point]"},
      {"smiles": "COc1cccc(C(=O)Nc2cccc(-c3nnc(-c4ccco4)o3)c2)c1", "Potency": "inconclusive: 20.6 µM [falling, partial curve, poor fit]"},
      {"smiles": "Cc1nn(CCCC(=O)Nc2ccccc2C(F)(F)F)c(=O)c2nn(-c3ccccc3)c(C)c12", "Potency": "inconclusive: 23.1 µM [activator, single point]"},
      {"smiles": "CCCCNC(=O)CSc1nc2ccc(NC(=O)CSc3nnc(N)s3)cc2s1", "Potency": "active: 16.4 µM"},
      {"smiles": "CCOC(=O)N1CCC(NC(=O)CCC(=O)N2CC(C)Oc3ccccc32)CC1", "note": "(stereo not drawn)", "Potency": "inconclusive: 13 µM [falling, partial curve, poor fit]"},
      {"smiles": "CC(C)(C)C(=O)NNc1nc(-c2ccccc2)c2cc(Br)ccc2n1", "Potency": "inactive"},
      {"smiles": "Cc1cccc(N2CCN(C(=O)c3ccc(Cl)c(S(=O)(=O)NCc4ccco4)c3)CC2)c1C", "Potency": "inconclusive: 11.6 µM [falling, partial curve]"},
      {"smiles": "COc1ccc(N2CC(O)(c3ccc(F)cc3)[N+]3=C2CCCC3)cc1", "note": "(stereo not drawn)", "Potency": "inactive"},
      {"smiles": "Cc1ccccc1S(=O)(=O)N1[C@@H](c2ccccc2)C(C(=O)O)=CC[C@H]1c1ccc(Cl)cc1", "Potency": "inactive"},
      {"smiles": "COc1ccc(/C(N)=N/OC(=O)c2ccc(Br)o2)cc1", "Potency": "inconclusive: 6.51 µM [activator, partial curve]"},
      {"smiles": "CC(C)(C)c1nc(SCC(=O)Nc2nc3c(s2)CCCC3)c2ccccc2n1", "Potency": "inconclusive: 0.326 µM [activator, full curve, poor fit]"},
      {"smiles": "Cc1cccc(N/C(N)=N/c2nc(C)c(Cc3ccccc3)c(=O)[nH]2)c1", "Potency": "inconclusive: 20.6 µM [falling, single point]"},
      {"smiles": "COc1cc(OC)cc(C(=O)N2CCN(C(=O)c3cccc(F)c3)CC2)c1", "Potency": "inactive"},
      {"smiles": "Cc1ccc(S(=O)(=O)N2CCOCC2)cc1NC(=O)COC(=O)c1n[nH]c(=O)c2ccccc12", "Potency": "inconclusive: 4.61 µM [falling, single point]"},
      {"smiles": "Cc1nn(-c2ccccc2)c2c1N(CC(=O)N1CCN(c3ccc(Cl)cc3)CC1)C(=O)CS2", "Potency": "inconclusive: 20.6 µM [falling, partial curve, poor fit]"},
      {"smiles": "O=C(CN1C(=O)NC2(CCOc3ccccc32)C1=O)NCCc1ccc(F)cc1", "note": "(stereo not drawn)", "Potency": "inactive"},
      {"smiles": "COc1cccc(NC(=S)N(CCc2c(C)[nH]c3ccccc23)Cc2ccco2)c1", "Potency": "inconclusive: 32.6 µM [falling, single point]"},
      {"smiles": "CCOC(=O)c1c(C)[nH]c(C(=O)OCC(=O)Nc2sc(C(=O)N(C)C)c(C)c2C(=O)OCC)c1C", "Potency": "inconclusive: 23.1 µM [falling, single point]"},
      {"smiles": "Cc1ccc(S(=O)(=O)c2cn(Cc3ccccc3)c3cc(N4CCOCC4)c(F)cc3c2=O)cc1", "Potency": "inactive"},
      {"smiles": "COCCNC(=O)Nc1ccc2c(c1)N(C)C(=O)c1ccccc1S2", "Potency": "inactive"},
      {"smiles": "CCOC(=O)c1c(C)nc2c(c1C)c(=O)oc1ccccc12", "Potency": "inconclusive: 20.6 µM [activator, single point]"},
      {"smiles": "CCn1c(SCC(=O)N2CCCCC2)nc2c(c1=O)SC(C)C2", "note": "(stereo not drawn)", "Potency": "inconclusive: 20.6 µM [falling, partial curve, poor fit]"},
      {"smiles": "CCn1cc(C(=O)NCCC(C)C)c(=O)c2cc(S(=O)(=O)N(C)C3CCCCC3)ccc21", "Potency": "inactive"},
      {"smiles": "O=C1CC(O)(C(F)(F)F)Oc2c1ccc1ccccc21", "note": "(stereo not drawn)", "Potency": "inactive"},
      {"smiles": "CCN(CC)c1ccc(/C=c2\\sc3nc4ccccc4n3c2=O)c(O)c1", "Potency": "inconclusive: 25.9 µM [falling, single point]"},
      {"smiles": "CC(C)n1cc(/C=C2/SC(=O)N(CC(=O)Nc3ccc4c(c3)OCO4)C2=O)c2ccccc21", "Potency": "inconclusive: 25.9 µM [falling, single point]"},
      {"smiles": "CC1CCCCN1c1cc2c(cc1F)c(=O)c(S(=O)(=O)c1ccccc1)cn2Cc1ccccc1", "note": "(stereo not drawn)", "Potency": "inconclusive: 16.4 µM [falling, single point]"},
      {"smiles": "CCCn1nc(NC(=O)C2CCCO2)c2cc3cc(C)ccc3nc21", "note": "(stereo not drawn)", "Potency": "inconclusive: 4.11 µM [activator, full curve, poor fit]"},
      {"smiles": "Cn1c(SCc2cccc(Br)c2)nc2ccccc2c1=O", "Potency": "inconclusive: 7.31 µM [falling, full curve, poor fit]"},
      {"smiles": "CCOc1cc(C(=O)N(C)Cc2cc3cc(OC)ccc3[nH]c2=O)cc(OCC)c1OCC", "Potency": "inactive"},
      {"smiles": "COc1ccc(C2=CC(c3cccc(OC)c3)n3nnnc3N2)cc1", "note": "(stereo not drawn)", "Potency": "inconclusive: 6.51 µM [activator, single point]"},
      {"smiles": "N#Cc1ccc(C(=O)Nc2cc(C3CC3)nn2-c2ccccc2)cc1", "Potency": "inactive"},
      {"smiles": "Cc1cc(C)c(CSc2ncc(-c3ccc([N+](=O)[O-])cc3)[nH]2)c(C)c1", "Potency": "inconclusive: 29.1 µM [falling, single point]"},
      {"smiles": "CN(C)c1ccc(C(=S)Nc2ccccc2)cc1", "Potency": "inconclusive: 1.16 µM [activator, full curve]"},
      {"smiles": "CN(C)C(CNC(=O)c1ccc(Cl)c(S(=O)(=O)N2CCCCCC2)c1)c1ccccc1", "note": "(stereo not drawn)", "Potency": "inconclusive: 20.6 µM [falling, single point]"},
      {"smiles": "c1ccc(CN2OCC3Cn4c(nc5ccccc54)C32)cc1", "note": "(stereo not drawn)", "Potency": "inconclusive: 25.9 µM [activator, single point]"},
      {"smiles": "COc1ccc(CCNC(=O)c2nonc2N)cc1", "Potency": "inconclusive: 5.8 µM [activator, partial curve, poor fit]"},
      {"smiles": "COc1cccc(-c2nc(CS(=O)(=O)CC(=O)N3CCN(c4ccccc4)CC3)c(C)o2)c1", "Potency": "inconclusive: 29.1 µM [falling, single point]"},
      {"smiles": "COC(=O)CCN1CCC2CC1c1cc(-c3cccc(C)c3)ccc12", "note": "(stereo not drawn)", "Potency": "inactive"},
      {"smiles": "Cc1ccc(Cl)cc1N1CCN(C(=O)c2ccc3c(Cl)c4c(nc3c2)CCCC4)CC1", "Potency": "inconclusive: 23.1 µM [activator, partial curve, poor fit]"},
      {"smiles": "CCOc1nc2c(c(-c3cccs3)c1C#N)Cc1ccccc1-2", "Potency": "inactive"},
      {"smiles": "COc1ccc(CC(=O)Nc2ccc(-c3nnc(-c4ccc(C)cc4)o3)cc2)cc1", "Potency": "inconclusive: 9.2 µM [activator, partial curve, poor fit]"},
      {"smiles": "Cc1cc(C(=O)OCC(=O)N2c3ccccc3CC2C)c(C)o1", "note": "(stereo not drawn)", "Potency": "inconclusive: 23.1 µM [activator, single point]"},
      {"smiles": "Cc1ccc2cc3c(NC(=O)c4ccco4)nn(C)c3nc2c1", "Potency": "inconclusive: 25.9 µM [falling, partial curve, poor fit]"},
      {"smiles": "O=C(CN1CCCCC1)NNC(=O)c1ccc([N+](=O)[O-])cc1", "Potency": "inconclusive: 0.731 µM [falling, full curve, poor fit]"},
      {"smiles": "NC1=NC(=O)/C(=C\\c2ccco2)S1", "Potency": "inactive"},
      {"smiles": "COc1ccc(CNC(=O)c2ccc(Cn3c(=O)c4cccn4c4cccnc43)cc2)c(OC)c1", "Potency": "inactive"},
      {"smiles": "CC(=O)Nc1ccc(S(=O)(=O)NCc2ccc(C(=O)N3CCOCC3)cc2)cc1", "Potency": "inactive"},
      {"smiles": "Cc1ccc(O)c(NC(=O)c2cc(-c3ccc(F)cc3)no2)c1", "Potency": "inactive"},
      {"smiles": "CC1=C(C#N)C(=O)NC(=O)/C1=C\\c1ccc(-c2cc(C)c(C)cc2[N+](=O)[O-])o1", "Potency": "inactive"},
      {"smiles": "CCOC(=O)C(C)Oc1ccc(NC(=O)C(Cl)(Cl)Cl)cc1", "note": "(stereo not drawn)", "Potency": "inactive"},
      {"smiles": "CCOC(=O)c1snc(C(=O)NC2CCCCC2)c1N", "Potency": "inconclusive: 1.84 µM [activator, full curve]"},
      {"smiles": "CCOc1ccc(N(CC(=O)NC2CCCC2)C(=O)c2ccc(C)s2)cc1", "Potency": "inconclusive: 16.4 µM [falling, partial curve, poor fit]"},
      {"smiles": "C=CCSc1ncc(-c2ccccc2)cn1", "Potency": "inconclusive: 18.4 µM [activator, partial curve]"},
      {"smiles": "CCCCCCc1cc2cc(C(=O)Nc3cccc(OC)c3)c(=O)oc2cc1O", "Potency": "inactive"},
      {"smiles": "Cc1nc2c3cccnc3nn2c(C)c1CCC(=O)NCc1ccccc1", "Potency": "inconclusive: 29.1 µM [falling, partial curve, poor fit]"},
      {"smiles": "CCOC(=O)C1CCCN(C(=O)c2ccc3c(c2)N(C)C(=O)/C(=C/c2ccccc2Cl)S3)C1", "note": "(stereo not drawn)", "Potency": "active: 23.1 µM"},
      {"smiles": "CC(=O)c1c(C)[nH]c(C(=O)COc2cc(C)ccc2C(C)C)c1C", "Potency": "active: 7.31 µM"},
      {"smiles": "Cc1cc(N2C3CCC2CC(O)(c2ccc(F)cc2)C3)nc(-c2ccccc2)n1", "note": "(stereo not drawn)", "Potency": "active: 23.1 µM"},
      {"smiles": "CCOC(=O)N1CCC(N2Cc3cccc(C(=O)Nc4ccccc4OC)c3C2=O)CC1", "Potency": "inactive"},
      {"smiles": "COc1ccc(NC(=O)c2ccccc2F)cc1Cl", "Potency": "inconclusive: 18.4 µM [activator, partial curve]"},
      {"smiles": "O=c1c2sccc2nc(SCc2ccc([N+](=O)[O-])cc2)n1Cc1ccccn1", "Potency": "inconclusive: 29.1 µM [falling, single point]"},
      {"smiles": "CC(C)COc1ccc(C(=S)N2CCCC2)cc1", "Potency": "inconclusive: 10.3 µM [falling, partial curve]"},
      {"smiles": "N#Cc1ccc(-n2c(-c3ccccc3)nnc2-c2ccccc2)cc1C#N", "Potency": "inconclusive: 32.6 µM [falling, single point]"},
      {"smiles": "Cc1nc2ccccc2c2oc(C(=O)Nc3ccc4c(c3)OCCO4)cc12", "Potency": "active: 23.1 µM"}
    ]}
  ]
}
